{"source": "the supplement of paper PMC10338343", "note": "± gives the standard deviation. Only a part is listed here, and it is no random draw. The uncertainty is large for many entries.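 Further: 1 nM active piRISC with 0.1 nM target library at 33 °C single turnover.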"}
{"system": "MIWI (PIWIL1) piRISC loaded with L1MC piRNA (30 nt)", "experiment": "pre-steady-state target cleavage rate (min^-1); MIWI and MILI are mouse PIWI proteins and EfPiwi is from a freshwater sponge; tags in brackets are library labels; higher = faster piRNA-guided slicing of the target", "details": "guide: L1MC piRNA 5'p-UAACUAAAUACUAUGCAAGCUGUAGGUCCU; auxiliary factor: none (no GTSF1)", "in_short": "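A transcribed, DNA-blocked target RNA library […] was incubated at 33 °C for 0–8 or 0–960 min with 1 nM active affinity-purified piRISC carrying one synthetic guide, in HEPES–potassium acetate buffer with or without 500 nM GTSF1 partner protein. Uncleaved targets were then sequenced and normalised to depth and to weakly complementary targets. Data from three trials were pooled, with k3 capped at 0.0001 min^-1, and a burst-and-steady-state fit yielded the pre-steady-state cleavage rate.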"}
{"sequence": "UCCACCUACAGCUUGCGAUAGUAUUUAGUUA", "pre-steady-state target cleavage rate": "0.000792 ± 0.01"}
{"sequence": "AGGACCUACAGCUUCGUUAGUAUUUAGAAA", "pre-steady-state target cleavage rate": "0.00084 ± 0.0062"}
{"sequence": "UCGACCUACAGCUUGCAUACAUAAAUCAAA [g12:g28:cont:t1A]", "pre-steady-state target cleavage rate": "0.00048 ± 0.015"}
{"sequence": "UCCUCCUACAGCUUGCAUACAAUUUAGUAA", "pre-steady-state target cleavage rate": "0.00138 ± 0.0042"}
{"sequence": "UCGACCUACAGGUUGCAUAGUAUUUUCAAA", "pre-steady-state target cleavage rate": "0.0013 ± 0.0033"}
{"sequence": "UCCACCUACAGCUUCCAUAGUAUUUACAAA", "pre-steady-state target cleavage rate": "0.000374 ± 0.012"}
{"sequence": "UCCACCUACAGCAACCAUAGUAUUUAGUUA", "pre-steady-state target cleavage rate": "0.00074 ± 0.0058"}
{"sequence": "UCCUGGAUGUCGAACGAUAGUAUUGUAGUUA", "pre-steady-state target cleavage rate": "0.000352 ± 0.027"}
{"sequence": "AGGACCUACAGCUUGCAUUCAAUUUAGAAA", "pre-steady-state target cleavage rate": "0.000685 ± 0.009"}
{"sequence": "UCGACCUACAGCUACCAUAGUAUUUUCAAA", "pre-steady-state target cleavage rate": "0.000145 ± 0.018"}
{"sequence": "UGGACCUACAGCUUGCAUAGUAUUAACAAA", "pre-steady-state target cleavage rate": "0.00236 ± 0.0032"}
{"sequence": "UCCACCUACAGCUUGCAUAGUUAUUACAAA", "pre-steady-state target cleavage rate": "0.000565 ± 0.012"}
{"sequence": "AGGACCUACAGCUUGCAUAUGUAUUUAGUUA", "pre-steady-state target cleavage rate": "0.000812 ± 0.011"}
{"sequence": "UGGACCUACAGCUUGCAAAGUAUUUUCAAA", "pre-steady-state target cleavage rate": "0.00295 ± 0.0031"}
{"sequence": "UCCACCUACAGCUUCCAUAGUAUAUAGUUA", "pre-steady-state target cleavage rate": "0.000896 ± 0.0091"}
{"sequence": "UCCACCUACAGCUUGCAUUGUAUUUAGAAA", "pre-steady-state target cleavage rate": "0.00181 ± 0.0023"}
